Assay results: the supplement of paper PMC10849652
Some of the results follow.

Sequences of proteins named here, by UniProt entry; tags and fusion partners are left off. A change or cut given only in a name is not applied to a line headed by its entry.
UniProt P19447: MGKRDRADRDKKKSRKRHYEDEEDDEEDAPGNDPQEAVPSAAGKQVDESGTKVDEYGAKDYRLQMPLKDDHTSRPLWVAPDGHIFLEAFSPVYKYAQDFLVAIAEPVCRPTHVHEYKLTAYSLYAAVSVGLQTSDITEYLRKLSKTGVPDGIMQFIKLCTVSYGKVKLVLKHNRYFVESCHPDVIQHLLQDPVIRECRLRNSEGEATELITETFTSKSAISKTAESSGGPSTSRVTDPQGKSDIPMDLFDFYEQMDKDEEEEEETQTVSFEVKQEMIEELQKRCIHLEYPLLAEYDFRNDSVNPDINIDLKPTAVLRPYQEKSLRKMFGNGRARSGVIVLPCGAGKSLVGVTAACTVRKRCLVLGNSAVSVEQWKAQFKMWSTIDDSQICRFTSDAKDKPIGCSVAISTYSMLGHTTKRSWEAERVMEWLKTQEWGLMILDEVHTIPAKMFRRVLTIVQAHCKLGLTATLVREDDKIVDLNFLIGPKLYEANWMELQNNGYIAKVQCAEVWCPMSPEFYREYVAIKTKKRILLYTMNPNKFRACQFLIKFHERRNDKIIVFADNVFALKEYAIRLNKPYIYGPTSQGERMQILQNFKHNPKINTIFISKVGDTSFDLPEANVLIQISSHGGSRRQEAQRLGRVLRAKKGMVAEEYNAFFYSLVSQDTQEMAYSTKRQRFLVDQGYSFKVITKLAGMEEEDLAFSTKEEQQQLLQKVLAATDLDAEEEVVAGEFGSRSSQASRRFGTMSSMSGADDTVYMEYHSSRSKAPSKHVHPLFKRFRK
UniProt O75356: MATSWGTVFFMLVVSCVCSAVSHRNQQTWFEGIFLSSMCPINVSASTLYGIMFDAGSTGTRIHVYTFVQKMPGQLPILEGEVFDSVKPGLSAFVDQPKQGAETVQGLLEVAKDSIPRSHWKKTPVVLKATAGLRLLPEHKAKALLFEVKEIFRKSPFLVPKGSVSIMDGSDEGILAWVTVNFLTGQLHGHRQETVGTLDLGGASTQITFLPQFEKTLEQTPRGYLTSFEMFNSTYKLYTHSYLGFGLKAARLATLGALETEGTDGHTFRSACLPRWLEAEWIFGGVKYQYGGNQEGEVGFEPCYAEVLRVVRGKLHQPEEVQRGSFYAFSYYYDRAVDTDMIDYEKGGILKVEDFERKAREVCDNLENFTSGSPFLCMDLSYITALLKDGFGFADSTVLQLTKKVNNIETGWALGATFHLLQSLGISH
UniProt Q13542: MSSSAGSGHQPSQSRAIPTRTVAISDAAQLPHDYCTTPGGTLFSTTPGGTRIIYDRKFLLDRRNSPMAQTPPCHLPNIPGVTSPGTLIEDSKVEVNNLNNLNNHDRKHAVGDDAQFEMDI
UniProt P13929, whole entry, looked up: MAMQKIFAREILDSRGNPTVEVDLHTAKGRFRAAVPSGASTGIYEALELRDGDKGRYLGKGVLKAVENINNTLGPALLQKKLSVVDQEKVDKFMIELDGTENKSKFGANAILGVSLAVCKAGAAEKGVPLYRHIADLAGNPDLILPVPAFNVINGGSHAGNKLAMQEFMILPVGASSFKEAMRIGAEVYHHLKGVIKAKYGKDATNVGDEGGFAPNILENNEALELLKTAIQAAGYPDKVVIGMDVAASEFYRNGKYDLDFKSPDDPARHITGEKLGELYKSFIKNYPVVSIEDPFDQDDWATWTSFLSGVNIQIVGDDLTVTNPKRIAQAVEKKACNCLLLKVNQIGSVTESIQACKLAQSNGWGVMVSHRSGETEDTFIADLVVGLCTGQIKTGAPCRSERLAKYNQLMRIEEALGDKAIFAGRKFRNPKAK
UniProt P55884, whole entry, looked up: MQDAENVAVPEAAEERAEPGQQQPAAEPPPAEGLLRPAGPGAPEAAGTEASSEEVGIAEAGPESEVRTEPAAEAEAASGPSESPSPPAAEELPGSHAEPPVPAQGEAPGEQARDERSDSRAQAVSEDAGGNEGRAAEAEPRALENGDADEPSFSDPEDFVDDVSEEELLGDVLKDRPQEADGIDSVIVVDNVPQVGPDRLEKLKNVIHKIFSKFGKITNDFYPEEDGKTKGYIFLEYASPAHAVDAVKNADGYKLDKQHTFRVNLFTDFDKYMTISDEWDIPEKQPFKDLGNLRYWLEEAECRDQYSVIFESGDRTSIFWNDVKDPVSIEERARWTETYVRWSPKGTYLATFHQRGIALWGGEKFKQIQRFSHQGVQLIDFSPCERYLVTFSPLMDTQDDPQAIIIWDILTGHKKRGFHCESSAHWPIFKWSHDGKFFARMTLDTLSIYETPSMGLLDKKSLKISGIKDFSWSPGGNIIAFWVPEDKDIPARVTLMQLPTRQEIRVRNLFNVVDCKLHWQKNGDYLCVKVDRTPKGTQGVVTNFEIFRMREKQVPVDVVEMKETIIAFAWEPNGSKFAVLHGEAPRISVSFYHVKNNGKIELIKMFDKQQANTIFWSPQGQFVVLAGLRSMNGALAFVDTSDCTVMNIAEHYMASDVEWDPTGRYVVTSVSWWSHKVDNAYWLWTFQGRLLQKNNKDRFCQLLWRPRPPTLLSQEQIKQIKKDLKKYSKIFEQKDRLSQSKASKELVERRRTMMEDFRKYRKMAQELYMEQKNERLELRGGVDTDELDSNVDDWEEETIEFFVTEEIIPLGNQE
UniProt P06733, whole entry, looked up: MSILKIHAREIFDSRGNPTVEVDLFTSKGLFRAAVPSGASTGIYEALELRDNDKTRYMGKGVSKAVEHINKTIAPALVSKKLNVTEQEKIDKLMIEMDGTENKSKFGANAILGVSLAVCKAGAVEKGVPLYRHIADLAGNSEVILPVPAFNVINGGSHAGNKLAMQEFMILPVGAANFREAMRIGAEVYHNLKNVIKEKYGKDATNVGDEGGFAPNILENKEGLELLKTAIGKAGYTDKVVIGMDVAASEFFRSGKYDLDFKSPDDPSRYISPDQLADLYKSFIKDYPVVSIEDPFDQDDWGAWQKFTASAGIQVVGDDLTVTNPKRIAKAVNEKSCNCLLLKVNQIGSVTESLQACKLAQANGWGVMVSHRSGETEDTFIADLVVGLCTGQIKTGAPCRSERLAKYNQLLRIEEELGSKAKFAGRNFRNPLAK
UniProt Q9Y2J2, whole entry, looked up: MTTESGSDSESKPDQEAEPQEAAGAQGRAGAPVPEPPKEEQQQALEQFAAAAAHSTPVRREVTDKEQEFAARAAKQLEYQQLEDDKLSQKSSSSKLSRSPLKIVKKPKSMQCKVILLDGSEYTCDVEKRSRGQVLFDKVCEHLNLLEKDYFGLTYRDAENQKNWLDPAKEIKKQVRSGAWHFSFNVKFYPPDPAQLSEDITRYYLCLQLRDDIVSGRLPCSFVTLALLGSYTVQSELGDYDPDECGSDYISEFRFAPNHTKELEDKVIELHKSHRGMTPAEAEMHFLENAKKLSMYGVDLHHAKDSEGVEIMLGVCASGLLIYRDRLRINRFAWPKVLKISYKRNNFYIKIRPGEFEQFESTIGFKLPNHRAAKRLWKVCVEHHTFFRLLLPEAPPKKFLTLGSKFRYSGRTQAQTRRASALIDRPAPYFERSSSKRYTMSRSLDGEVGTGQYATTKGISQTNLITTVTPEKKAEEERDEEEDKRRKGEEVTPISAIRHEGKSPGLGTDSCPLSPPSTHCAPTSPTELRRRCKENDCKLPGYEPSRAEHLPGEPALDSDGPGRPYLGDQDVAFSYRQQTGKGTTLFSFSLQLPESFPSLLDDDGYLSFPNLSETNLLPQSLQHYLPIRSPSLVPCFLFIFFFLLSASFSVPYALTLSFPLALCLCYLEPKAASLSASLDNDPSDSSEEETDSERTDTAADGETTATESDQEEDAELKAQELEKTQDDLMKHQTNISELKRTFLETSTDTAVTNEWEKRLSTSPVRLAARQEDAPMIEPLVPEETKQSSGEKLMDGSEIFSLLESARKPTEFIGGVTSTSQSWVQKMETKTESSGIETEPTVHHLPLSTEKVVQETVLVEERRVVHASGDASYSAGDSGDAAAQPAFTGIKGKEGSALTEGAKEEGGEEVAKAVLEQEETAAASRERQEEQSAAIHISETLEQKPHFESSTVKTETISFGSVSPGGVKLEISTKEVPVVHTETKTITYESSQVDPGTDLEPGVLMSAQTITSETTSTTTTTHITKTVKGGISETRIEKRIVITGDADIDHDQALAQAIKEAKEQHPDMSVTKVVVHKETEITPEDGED
UniProt Q09472, whole entry, looked up: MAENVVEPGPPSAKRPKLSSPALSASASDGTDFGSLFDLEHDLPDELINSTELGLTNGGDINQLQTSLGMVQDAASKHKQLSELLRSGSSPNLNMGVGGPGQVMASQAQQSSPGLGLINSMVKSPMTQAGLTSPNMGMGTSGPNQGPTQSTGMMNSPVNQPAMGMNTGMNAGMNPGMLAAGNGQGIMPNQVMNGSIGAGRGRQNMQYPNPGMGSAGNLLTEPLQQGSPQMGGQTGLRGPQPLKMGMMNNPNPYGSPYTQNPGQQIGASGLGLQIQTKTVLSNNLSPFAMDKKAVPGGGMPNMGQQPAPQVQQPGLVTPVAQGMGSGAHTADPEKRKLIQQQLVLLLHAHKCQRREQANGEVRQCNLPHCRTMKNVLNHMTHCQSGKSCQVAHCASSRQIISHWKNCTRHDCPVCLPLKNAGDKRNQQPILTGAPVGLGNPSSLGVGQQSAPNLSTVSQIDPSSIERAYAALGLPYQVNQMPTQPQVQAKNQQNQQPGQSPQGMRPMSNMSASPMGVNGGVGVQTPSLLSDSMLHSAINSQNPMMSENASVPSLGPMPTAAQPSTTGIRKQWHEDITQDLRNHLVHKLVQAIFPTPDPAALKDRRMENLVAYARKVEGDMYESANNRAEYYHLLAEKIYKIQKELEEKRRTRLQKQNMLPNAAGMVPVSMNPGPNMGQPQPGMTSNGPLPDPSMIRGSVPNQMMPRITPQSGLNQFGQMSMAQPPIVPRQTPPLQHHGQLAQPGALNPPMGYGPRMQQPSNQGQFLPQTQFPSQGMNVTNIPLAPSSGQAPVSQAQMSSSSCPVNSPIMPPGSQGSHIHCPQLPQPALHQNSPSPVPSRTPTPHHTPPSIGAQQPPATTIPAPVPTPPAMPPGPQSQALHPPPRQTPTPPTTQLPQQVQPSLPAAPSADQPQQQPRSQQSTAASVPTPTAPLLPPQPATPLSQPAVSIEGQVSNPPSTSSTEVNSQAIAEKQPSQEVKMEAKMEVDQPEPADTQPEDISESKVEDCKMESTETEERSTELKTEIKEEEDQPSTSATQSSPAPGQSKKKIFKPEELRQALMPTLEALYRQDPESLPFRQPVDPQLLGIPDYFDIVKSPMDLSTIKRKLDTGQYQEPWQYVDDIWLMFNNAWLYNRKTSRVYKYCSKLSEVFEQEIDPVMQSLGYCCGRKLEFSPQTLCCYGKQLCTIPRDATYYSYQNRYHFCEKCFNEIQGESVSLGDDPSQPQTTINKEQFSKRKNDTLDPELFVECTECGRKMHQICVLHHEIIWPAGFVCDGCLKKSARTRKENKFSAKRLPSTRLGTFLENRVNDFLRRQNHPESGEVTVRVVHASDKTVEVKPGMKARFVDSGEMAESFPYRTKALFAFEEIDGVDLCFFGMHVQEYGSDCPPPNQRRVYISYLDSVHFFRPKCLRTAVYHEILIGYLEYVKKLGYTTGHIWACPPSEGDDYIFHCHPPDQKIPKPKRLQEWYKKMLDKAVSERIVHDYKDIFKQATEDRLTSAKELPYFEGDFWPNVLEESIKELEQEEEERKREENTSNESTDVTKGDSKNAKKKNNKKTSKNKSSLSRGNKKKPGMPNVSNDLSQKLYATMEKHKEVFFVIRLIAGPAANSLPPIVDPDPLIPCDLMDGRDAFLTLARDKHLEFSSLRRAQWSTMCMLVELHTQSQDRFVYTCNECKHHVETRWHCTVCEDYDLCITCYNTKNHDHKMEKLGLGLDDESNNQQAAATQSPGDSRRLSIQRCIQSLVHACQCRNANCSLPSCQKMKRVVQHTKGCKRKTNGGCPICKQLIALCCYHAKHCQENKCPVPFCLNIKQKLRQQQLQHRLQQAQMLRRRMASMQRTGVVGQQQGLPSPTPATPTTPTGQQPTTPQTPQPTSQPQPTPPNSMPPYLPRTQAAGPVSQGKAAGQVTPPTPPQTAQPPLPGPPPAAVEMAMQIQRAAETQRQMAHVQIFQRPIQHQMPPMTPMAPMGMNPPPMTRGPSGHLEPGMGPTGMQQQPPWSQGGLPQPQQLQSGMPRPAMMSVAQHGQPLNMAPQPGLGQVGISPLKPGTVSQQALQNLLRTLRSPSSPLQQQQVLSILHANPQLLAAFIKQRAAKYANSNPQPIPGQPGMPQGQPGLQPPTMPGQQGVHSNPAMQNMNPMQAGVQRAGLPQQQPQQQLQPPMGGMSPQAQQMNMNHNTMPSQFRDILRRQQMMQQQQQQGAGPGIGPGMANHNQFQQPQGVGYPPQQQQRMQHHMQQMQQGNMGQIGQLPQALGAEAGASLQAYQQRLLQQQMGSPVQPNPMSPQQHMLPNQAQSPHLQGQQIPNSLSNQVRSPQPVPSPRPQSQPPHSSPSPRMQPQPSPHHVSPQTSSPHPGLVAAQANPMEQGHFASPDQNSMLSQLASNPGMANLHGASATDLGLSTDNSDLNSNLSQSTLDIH

Legend:
Assay in all cases: log2 fold change, soluble protein after heating vs DMSO (PISA); higher = thermal stabilisation; K562 lysate, 10 uM; active = over 0.2 and 3.5 SD of the protein, either way, in both replicates (recomputed)
erlotinib = compound: C#Cc1cccc(Nc2ncnc3cc(OCCOC)c(OCCOC)cc23)c1 [erlotinib]
In short: (§1)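 Values give the log-two fold change in thermal stability against solvent controls, from duplicates. Crude K562 extract at 1 mg/mL protein, made by dounce homogenisation in PBS pH 7.4 with 1 mM MgCl2, was treated with 10 μM compound for 30 min. After 3 min heating across 48°C-58°C, aliquots were pooled, adjusted to 0.5% NP-40 at 4°C and centrifuged at 21,000xg for 90 min. The supernatant was measured by TMTpro 16plex LC-MS/MS with channel sums equalised.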

[1] = compound: C/C(=N\NC(=O)C1=CC(=CC=C1)S(=O)(=O)N2CCOCC2)/C3=C(C=CC(=C3)Cl)O
In short: as §1

[2] = compound: C1=CC(=CC=C1C2=NC3=C(N2)C=C(C=C3)C(=O)N)OC4=CC=C(C=C4)Cl
In short: as §1

[3] = compound: C1=CC2=C(C=CC(=C2)/C=C\3/C(=O)NC(=NCC4=CC=CS4)S3)N=C1
In short: as §1

[4] = compound: C1=CC2=NC=CN=C2C=C1/C=C/3\C(=O)NC(=O)S3
In short: as §1

[5] = compound: C1=CC=C(C=C1)C2=NC(=C(N2)C3=CC=NC=C3)C4=CC(=C(C=C4)Cl)O
In short: as §1

[6] = compound: C1=CC=C2C(=C1)C3=NNC4=CC=CC(=C43)C2=O
In short: as §1

[7] = compound: C1CCN(C1)C(=O)NC2=CC=CC(=C2)NC3=NC=C(C(=N3)NCCC4=CN=CN4)Br
In short: as §1

[8] = compound: C1CN(CCC1(CC2=CC=C(C=C2)Cl)N)C3=NC=NC4=C3C=CN4
In short: as §1

IRAK-1-4 Inhibitor I = compound: C1COCCN1CCN2C3=CC=CC=C3N=C2NC(=O)C4=CC(=CC=C4)[N+](=O)[O-] [IRAK-1-4 Inhibitor I]
In short: as §1

ibrutinib = compound: C=CC(=O)N1CCC[C@@H](n2nc(-c3ccc(Oc4ccccc4)cc3)c3c(N)ncnc32)C1 [ibrutinib]
In short: as §1

[9] = compound: CC(=O)c1cnc2ccc(-c3cc(Cl)c(O)c(Cl)c3)nc2c1N[C@H]1CC[C@H](CN(C)C)CC1
In short: as §1

ralimetinib = compound: CC(C)(C)Cn1c(N)nc2ccc(-c3[nH]c(C(C)(C)C)nc3-c3ccc(F)cc3)nc21 [ralimetinib]
In short: as §1

[10] = compound: CC(C)(O)CC(=O)NCCn1ccc2ncnc(Nc3ccc(Oc4cccc(C(F)(F)F)c4)c(Cl)c3)c21
In short: as §1

[11] = compound: CC(C)C1=C2N=C(C=C(N2N=C1)NCC3=CC=CC=C3)NCCCCCCN
In short: as §1

[12] = compound: CC1=C(C(CC(=O)N1)C2=CC=C(C=C2)C(F)(F)F)C(=O)NC3=C(C=C4C(=C3)C=NN4)F
In short: as §1

[13] = compound: CC1=C(C2=C(C=C1)C(=O)C3=CC=CC=C3N2CCCN)C
In short: as §1

[14] = compound: CC1=C(C=C(C=C1)NC(=O)C2=CC(=CC=C2)C(C)(C)C#N)NC3=CC4=C(C=C3)N=CN(C4=O)C
In short: as §1

[15] = compound: CC1=C(C=C(C=C1)NC(=O)C2=CC(=CC=C2)N(C)C)NC(=O)C3=CC=C(C=C3)O
In short: as §1

[16] = compound: CC1=CC=C(C=C1)SC2=C3C=C(SC3=CN=C2)C(=O)N
In short: as §1

Measured: log2 fold change

ERCC3 (UniProt P19447)
inactive: erlotinib 0.024 | [1] -0.035 | [2] 0 | [3] -0.031 | [4] 0.002 | [5] 0.042 | [6] -0.061 | [7] -0.047 | [8] 0.025 | IRAK-1-4 Inhibitor I -0.022 | ibrutinib -0.024 | [9] -0.002 | ralimetinib -0.025 | [10] -0.02 | [11] -0.014 | [12] -0.02 | [13] -0.032 | [14] 0.014 | [15] -0.046 | [16] 0.027

EPS15 (UniProt P42566)
inactive: erlotinib -0.006 | [1] 0.03 | [2] 0.026 | [3] -0.014 | [4] -0.004 | [5] 0.016 | [6] -0.026 | [7] -0.027 | [8] 0.02 | IRAK-1-4 Inhibitor I -0.001 | ibrutinib -0.002 | [9] -0.005 | ralimetinib -0.016 | [10] 0.005 | [11] -0.002 | [12] -0.01 | [13] -0.006 | [14] 0.002 | [15] 0.014 | [16] -0.013

ENDOG (UniProt Q14249)
inactive: erlotinib 0.006 | [1] 0.075 | [2] 0.006 | [3] -0.014 | [4] 0 | [5] -0.041 | [6] -0.088 | [7] -0.008 | [8] 0.037 | IRAK-1-4 Inhibitor I -0.001 | ibrutinib 0.035 | [9] 0.014 | ralimetinib 0.079 | [10] -0.051 | [11] -0.016 | [12] -0.019 | [13] 0.005 | [14] -0.025 | [15] 0.021 | [16] 0.008

ENTPD5 (UniProt O75356)
inactive: erlotinib -0.006 | [1] 0.192 | [2] -0.044 | [3] 0.07 | [4] -0.114 | [5] 0.007 | [6] -0.134 | [7] -0.051 | [8] 0.003 | IRAK-1-4 Inhibitor I -0.027 | ibrutinib 0.076 | [9] -0.013 | ralimetinib -0.018 | [10] -0.002 | [11] 0.011 | [12] -0.007 | [13] -0.018 | [14] -0.042 | [15] -0.067 | [16] -0.001

EPN2 (UniProt O95208)
inactive: erlotinib 0.054 | [1] -0.08 | [2] -0.001 | [3] -0.011 | [4] -0.059 | [5] -0.039 | [6] 0.003 | [7] -0.003 | [8] 0.007 | IRAK-1-4 Inhibitor I -0.005 | ibrutinib -0.01 | [9] -0.016 | ralimetinib 0.075 | [10] -0.004 | [11] -0.058 | [12] 0.009 | [13] -0.024 | [14] 0.001 | [15] 0.017 | [16] -0.009

EIF4EBP2 (UniProt Q13542)
inactive: erlotinib 0.103 | [1] 0.087 | [2] -0.042 | [3] 0.036 | [4] -0.158 | [5] -0.064 | [6] 0.011 | [7] -0.083 | [8] 0.072 | IRAK-1-4 Inhibitor I -0.034 | ibrutinib -0.037 | [9] -0.007 | ralimetinib -0.038 | [10] 0.046 | [11] -0.037 | [12] -0.049 | [13] 0.063 | [14] -0.031 | [15] 0.169 | [16] 0.03

ENO3 (UniProt P13929)
inactive: erlotinib -0.001 | [1] 0.11 | [2] 0.047 | [3] -0.07 | [4] 0.032 | [5] 0.054 | [6] -0.016 | [7] 0.071 | [8] 0.065 | IRAK-1-4 Inhibitor I 0.099 | ibrutinib 0.092 | [9] 0.001 | ralimetinib 0.111 | [10] 0.071 | [11] -0.004 | [12] -0.026 | [13] -0.193 | [14] 0.083 | [15] -0.04 | [16] -0.016

ERGIC3 isoform 3 (UniProt Q9Y282)
inactive: erlotinib -0.005 | [1] 0.046 | [2] -0.055 | [3] -0.026 | [4] 0.04 | [5] -0.012 | [6] -0.062 | [7] 0.1 | [8] 0.019 | IRAK-1-4 Inhibitor I -0.028 | ibrutinib -0.03 | [9] -0.01 | ralimetinib -0.024 | [10] -0.074 | [11] 0.016 | [12] 0.05 | [13] 0.101 | [14] -0.026 | [15] 0.03 | [16] -0.013

Random excerpt: two entries already listed, in no set order.
ERGIC3 isoform 3 (UniProt Q9Y282)
inactive: erlotinib -0.005 | [1] 0.046 | [2] -0.055 | [3] -0.026 | [4] 0.04 | [5] -0.012 | [6] -0.062 | [7] 0.1 | [8] 0.019 | IRAK-1-4 Inhibitor I -0.028 | ibrutinib -0.03 | [9] -0.01 | ralimetinib -0.024 | [10] -0.074 | [11] 0.016 | [12] 0.05 | [13] 0.101 | [14] -0.026 | [15] 0.03 | [16] -0.013

ENDOG (UniProt Q14249)
inactive: erlotinib 0.006 | [1] 0.075 | [2] 0.006 | [3] -0.014 | [4] 0 | [5] -0.041 | [6] -0.088 | [7] -0.008 | [8] 0.037 | IRAK-1-4 Inhibitor I -0.001 | ibrutinib 0.035 | [9] 0.014 | ralimetinib 0.079 | [10] -0.051 | [11] -0.016 | [12] -0.019 | [13] 0.005 | [14] -0.025 | [15] 0.021 | [16] 0.008

The listing continues:

ERI3 (UniProt O43414)
inactive: erlotinib 0.017 | [1] 0.059 | [2] 0.017 | [3] -0.037 | [4] -0.03 | [5] 0.021 | [6] -0.017 | [7] -0.024 | [8] 0.046 | IRAK-1-4 Inhibitor I -0.004 | ibrutinib -0.029 | [9] -0.033 | ralimetinib -0.033 | [10] -0.022 | [11] -0.024 | [12] -0.025 | [13] -0.009 | [14] 0.01 | [15] -0.006 | [16] 0.003

EPHB4 (UniProt P54760)
inactive: erlotinib 0.06 | [1] 0.316 | [2] 0.107 | [3] 0.083 | [4] 0.039 | [5] -0.041 | [6] -0.165 | [7] -0.012 | [8] 0.094 | IRAK-1-4 Inhibitor I 0.051 | ibrutinib -0.05 | [9] 0.223 | ralimetinib 0.072 | [10] -0.031 | [11] -0.02 | [12] 0.007 | [13] -0.06 | [14] 0.395 | [15] 0.104 | [16] -0.003

EIF3B isoform 2 (UniProt P55884)
inactive: erlotinib 0.005 | [1] -0.056 | [2] 0.006 | [3] -0.018 | [4] 0.006 | [5] -0.005 | [6] -0.016 | [7] -0.02 | [8] 0.001 | IRAK-1-4 Inhibitor I -0.008 | ibrutinib -0.029 | [9] -0.005 | ralimetinib 0.007 | [10] -0.002 | [11] -0.011 | [12] -0.018 | [13] 0.004 | [14] 0.015 | [15] -0.001 | [16] 0.007

ENO1 isoform 2 (UniProt P06733)
inactive: erlotinib -0.02 | [1] -0.039 | [2] -0.035 | [3] -0.021 | [4] -0.016 | [5] -0.003 | [6] -0.066 | [7] -0.033 | [8] 0.027 | IRAK-1-4 Inhibitor I 0.015 | ibrutinib -0.043 | [9] 0.008 | ralimetinib 0.02 | [10] -0.07 | [11] 0.028 | [12] -0.009 | [13] -0.013 | [14] 0.023 | [15] -0.002 | [16] -0.015

ELF1 (UniProt P32519)
inactive: erlotinib 0.052 | [1] -0.012 | [2] 0.094 | [3] -0.018 | [4] -0.026 | [5] 0.022 | [6] 0.015 | [7] -0.058 | [8] 0.023 | IRAK-1-4 Inhibitor I -0.005 | ibrutinib -0.008 | [9] 0.063 | ralimetinib 0.004 | [10] -0.014 | [11] 0.037 | [12] 0.021 | [13] -0.007 | [14] 0.003 | [15] 0.03 | [16] -0.007

ERCC4 (UniProt Q92889)
inactive: erlotinib -0.008 | [1] -0.04 | [2] 0.033 | [3] 0.015 | [4] -0.021 | [5] -0.003 | [6] -0.096 | [7] -0.006 | [8] 0.051 | IRAK-1-4 Inhibitor I 0.029 | ibrutinib -0.02 | [9] 0.027 | ralimetinib -0.028 | [10] 0.006 | [11] 0.059 | [12] -0.021 | [13] -0.029 | [14] 0.013 | [15] 0.025 | [16] -0.054

EPB41L3 (UniProt Q9Y2J2)
inactive: erlotinib -0.038 | [1] 0 | [2] -0.036 | [3] 0.045 | [4] 0 | [5] 0.019 | [6] 0.021 | [7] 0.054 | [8] -0.017 | IRAK-1-4 Inhibitor I -0.071 | ibrutinib -0.025 | [9] 0.021 | ralimetinib 0.007 | [10] 0.124 | [11] -0.009 | [12] 0.055 | [13] 0.054 | [14] -0.058 | [15] -0.003 | [16] 0.035

EP300 (UniProt Q09472)
inactive: erlotinib 0.017 | [1] 0.011 | [2] -0.024 | [3] -0.017 | [4] 0.078 | [5] -0.015 | [6] -0.019 | [7] -0.033 | [8] 0 | IRAK-1-4 Inhibitor I -0.006 | ibrutinib 0.084 | [9] 0.117 | ralimetinib -0.026 | [10] -0.011 | [11] -0.07 | [12] 0.423 | [13] -0.011 | [14] -0.035 | [15] -0.025 | [16] -0.008
